Assay results from paper doi:10.1101/2021.04.13.439655.
These are yes or no findings as the source states them, for the method shown.

Protein sequences, listed by entry. Tags and fused reporters are not part of them. Residues count along the entry.
UniProt Q13485, residues 310-552: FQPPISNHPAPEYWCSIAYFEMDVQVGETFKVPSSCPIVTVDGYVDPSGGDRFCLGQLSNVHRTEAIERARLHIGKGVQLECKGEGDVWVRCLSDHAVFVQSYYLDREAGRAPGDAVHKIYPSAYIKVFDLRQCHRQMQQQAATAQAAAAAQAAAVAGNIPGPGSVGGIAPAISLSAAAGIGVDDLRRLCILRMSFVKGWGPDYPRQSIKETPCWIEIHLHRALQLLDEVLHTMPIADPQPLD

Molecular target: Smad4 core MH2 domain (S4MH2) (UniProt Q13485)
Assay: SAXS with ensemble optimization method

Smad4 core MH2 domain (S4MH2) (from UniProt Q13485 310-552) (domain or fragment)
binding: no binding (tested: 19-790 μM)
